Taken from: PubChem BioAssay AID1224830 (NIAID, 2016)

Assay: 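Host factors that control LPS-induced TNF expression in human macrophages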 (primary screen)
System: human THP-1 monocytic leukaemia cells, TNF dual-luciferase reporter clone, PMA-differentiated to macrophage-like cells
Reagents: siRNA pool against human genes, 50 nM
Timing: LPS for 4 h, given about 3 days after siRNA transfection
Conditions: bacterial LPS (TLR4 ligand), 10 ng/ml
Read-out: 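TNF firefly reporter luminescence divided by renilla, normalised to the plate median, then turned into a robust z-score for each replicate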
Reading the numbers: TNF reporter robust z-score: higher = stronger TNF reporter response to LPS
Hit rule: 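a well is active when its z-score exceeds 2.8 or falls below -1.5; control wells carry no call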
In all, the deposit lists about 18,000 reagents; this is a part drawn at random. In the full data, about 2,900 (16%) are marked active. 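Calls are made per well; low scores hint the gene aids the LPS response, high scores that it dampens it.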 A number with no mark means an inactive call. Repeated entries: four replicate wells of each siRNA pool.

target gene	TNF reporter robust z-score
SNAPIN	-1.88 (active)
SNAPIN	-1.45
SNAPIN	-1.85 (active)
SNAPIN	-1.77 (active)
ST3GAL5	-0.07
ST3GAL5	-0.23
ST3GAL5	-0.16
ST3GAL5	0.43
CGB8	0.19
CGB8	0.49
CGB8	-1.22
CGB8	-0.56
OR5D18	2.5
OR5D18	1.59
OR5D18	-0.2
OR5D18	0.38
CCDC62	0.53
CCDC62	1.44
CCDC62	2.27
CCDC62	0.7
KRTAP27-1	-1.12
KRTAP27-1	-1.63 (active)
KRTAP27-1	-0.98
KRTAP27-1	-0.83
LRRC7	-0.87
LRRC7	-0.6
LRRC7	0.58
LRRC7	-0.29
TMEM59L	-1.09
TMEM59L	0.58
TMEM59L	-0.04
TMEM59L	-0.18
BID	-0.31
BID	0.55
BID	-1.08
BID	0.66
CTRB1	-0.32
CTRB1	-0.76
CTRB1	-0.11
CTRB1	-0.8
PCDHAC2	0.05
PCDHAC2	-1.01
PCDHAC2	-0.38
PCDHAC2	-0.57
TRMT11	-0.48
TRMT11	-0.83
TRMT11	-0.42
TRMT11	-0.08
CLDN5	-0.42
CLDN5	-0.16
CLDN5	-0.18
CLDN5	-0.12

8 entries from above, arranged by “TNF reporter robust z-score”, ascending.
target gene	TNF reporter robust z-score
TRMT11	-0.83
TRMT11	-0.48
TRMT11	-0.42
CLDN5	-0.42
CLDN5	-0.18
CLDN5	-0.16
CLDN5	-0.12
TRMT11	-0.08

Continued.
target gene	TNF reporter robust z-score
IL23R	-1.05
IL23R	-0.49
IL23R	-0.47
IL23R	-0.33
RAB11FIP1	1.43
RAB11FIP1	2.55
RAB11FIP1	1.5
RAB11FIP1	2.25
KLK1	1.04
KLK1	0.32
KLK1	0.02
KLK1	2.41
LHFPL2	0.17
LHFPL2	-0.32
LHFPL2	-0.22
SOX11	-0.23
SOX11	-0.16
SOX11	-0.17
SOX11	-0.06
USP32	-0.76
USP32	-0.84
USP32	-0.57
NOP53	-0.67
NOP53	1.28
NOP53	3.11 (active)
NOP53	3.61 (active)
